Test results as given in paper doi:10.1101/2020.11.12.379867.
These are yes or no findings as the source states them, for the method shown. In cells and extracts the contact can be indirect. Some entries that bind do so weakly or less than the wild type.

Protein sequences, listed by entry. Tags and fused reporters are not part of them. Lines headed by an entry give the natural chain unless they say otherwise; changes in a name come on top. Chains listed by the source or under a name are the forms on record and can include a tag or linker.
GluA1^DDDD (mouse GluA1 with S816, S818, S831 and S845 replaced with aspartate) (P23818, form named): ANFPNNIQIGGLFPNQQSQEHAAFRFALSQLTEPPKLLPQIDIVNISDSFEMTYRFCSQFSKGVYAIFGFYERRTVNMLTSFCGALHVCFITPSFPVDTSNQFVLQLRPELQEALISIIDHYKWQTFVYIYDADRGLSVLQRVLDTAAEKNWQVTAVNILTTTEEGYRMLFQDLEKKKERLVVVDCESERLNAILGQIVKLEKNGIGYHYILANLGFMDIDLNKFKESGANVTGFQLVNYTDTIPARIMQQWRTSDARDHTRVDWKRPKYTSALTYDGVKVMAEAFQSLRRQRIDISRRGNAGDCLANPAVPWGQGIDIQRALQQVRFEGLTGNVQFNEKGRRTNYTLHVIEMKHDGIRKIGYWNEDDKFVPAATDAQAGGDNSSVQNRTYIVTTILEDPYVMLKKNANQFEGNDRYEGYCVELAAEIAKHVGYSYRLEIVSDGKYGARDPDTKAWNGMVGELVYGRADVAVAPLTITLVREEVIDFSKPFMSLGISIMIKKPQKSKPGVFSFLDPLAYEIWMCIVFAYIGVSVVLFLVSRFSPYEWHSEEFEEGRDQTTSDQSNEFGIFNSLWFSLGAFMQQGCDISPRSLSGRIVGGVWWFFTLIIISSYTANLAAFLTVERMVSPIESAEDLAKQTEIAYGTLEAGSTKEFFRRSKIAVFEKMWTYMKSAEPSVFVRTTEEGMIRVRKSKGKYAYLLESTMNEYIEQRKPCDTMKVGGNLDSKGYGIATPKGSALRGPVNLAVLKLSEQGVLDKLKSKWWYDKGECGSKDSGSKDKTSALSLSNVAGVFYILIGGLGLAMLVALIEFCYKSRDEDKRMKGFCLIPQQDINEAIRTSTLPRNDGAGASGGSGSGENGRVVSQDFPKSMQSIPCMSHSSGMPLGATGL
GluA1^DDAA (mouse GluA1 with S816/S818 replaced with aspartate and S831/S845 with alanine) (P23818, form named): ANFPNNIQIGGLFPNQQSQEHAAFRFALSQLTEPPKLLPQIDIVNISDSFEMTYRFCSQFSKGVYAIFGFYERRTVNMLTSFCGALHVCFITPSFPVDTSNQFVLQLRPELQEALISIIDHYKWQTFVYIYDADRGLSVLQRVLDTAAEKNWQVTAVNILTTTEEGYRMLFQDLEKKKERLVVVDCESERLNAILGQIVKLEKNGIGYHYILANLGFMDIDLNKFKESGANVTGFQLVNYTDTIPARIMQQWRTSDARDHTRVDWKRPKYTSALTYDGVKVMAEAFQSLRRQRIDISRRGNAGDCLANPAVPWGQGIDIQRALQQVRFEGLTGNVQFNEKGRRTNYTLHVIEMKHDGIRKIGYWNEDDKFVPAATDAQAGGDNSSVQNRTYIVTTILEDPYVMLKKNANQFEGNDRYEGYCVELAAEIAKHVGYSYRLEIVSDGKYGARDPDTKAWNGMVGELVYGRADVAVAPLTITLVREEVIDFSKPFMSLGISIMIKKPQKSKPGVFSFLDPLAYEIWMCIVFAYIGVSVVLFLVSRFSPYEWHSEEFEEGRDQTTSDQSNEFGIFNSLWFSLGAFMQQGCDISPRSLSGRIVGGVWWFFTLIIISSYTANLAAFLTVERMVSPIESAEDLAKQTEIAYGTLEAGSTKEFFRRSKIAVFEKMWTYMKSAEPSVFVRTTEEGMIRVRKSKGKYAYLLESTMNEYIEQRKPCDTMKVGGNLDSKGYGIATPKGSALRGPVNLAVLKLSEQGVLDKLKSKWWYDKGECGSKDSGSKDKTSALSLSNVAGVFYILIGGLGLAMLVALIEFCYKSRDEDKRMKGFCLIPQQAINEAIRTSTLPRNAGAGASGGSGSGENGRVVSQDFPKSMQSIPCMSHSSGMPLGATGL
GluA1^AAAA (mouse GluA1 with S816, S818, S831 and S845 replaced with alanine) (P23818, form named): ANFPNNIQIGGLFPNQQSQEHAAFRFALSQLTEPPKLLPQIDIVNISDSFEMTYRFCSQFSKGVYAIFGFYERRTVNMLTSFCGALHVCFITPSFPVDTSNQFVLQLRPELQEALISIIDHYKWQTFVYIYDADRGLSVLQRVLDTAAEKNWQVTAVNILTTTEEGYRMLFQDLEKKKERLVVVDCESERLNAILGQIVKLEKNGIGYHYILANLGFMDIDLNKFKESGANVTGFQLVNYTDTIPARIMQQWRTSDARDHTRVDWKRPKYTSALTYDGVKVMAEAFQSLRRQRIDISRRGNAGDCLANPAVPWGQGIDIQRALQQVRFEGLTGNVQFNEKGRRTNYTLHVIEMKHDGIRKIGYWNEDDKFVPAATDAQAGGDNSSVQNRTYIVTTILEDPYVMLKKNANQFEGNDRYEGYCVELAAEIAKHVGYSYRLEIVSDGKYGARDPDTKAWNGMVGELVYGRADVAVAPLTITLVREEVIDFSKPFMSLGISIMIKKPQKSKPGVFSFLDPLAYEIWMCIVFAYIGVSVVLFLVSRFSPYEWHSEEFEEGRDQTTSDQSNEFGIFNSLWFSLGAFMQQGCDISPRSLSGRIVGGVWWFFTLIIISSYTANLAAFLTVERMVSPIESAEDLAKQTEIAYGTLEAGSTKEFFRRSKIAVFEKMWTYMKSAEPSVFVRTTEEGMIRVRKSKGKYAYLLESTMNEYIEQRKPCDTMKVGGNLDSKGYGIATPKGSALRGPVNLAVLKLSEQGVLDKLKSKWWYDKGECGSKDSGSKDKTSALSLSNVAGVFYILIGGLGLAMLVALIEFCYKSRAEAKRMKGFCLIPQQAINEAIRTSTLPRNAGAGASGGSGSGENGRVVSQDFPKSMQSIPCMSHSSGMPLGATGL
GluA1^AADD (mouse GluA1 with S816/S818 replaced with alanine and S831/S845 with aspartate) (P23818, form named): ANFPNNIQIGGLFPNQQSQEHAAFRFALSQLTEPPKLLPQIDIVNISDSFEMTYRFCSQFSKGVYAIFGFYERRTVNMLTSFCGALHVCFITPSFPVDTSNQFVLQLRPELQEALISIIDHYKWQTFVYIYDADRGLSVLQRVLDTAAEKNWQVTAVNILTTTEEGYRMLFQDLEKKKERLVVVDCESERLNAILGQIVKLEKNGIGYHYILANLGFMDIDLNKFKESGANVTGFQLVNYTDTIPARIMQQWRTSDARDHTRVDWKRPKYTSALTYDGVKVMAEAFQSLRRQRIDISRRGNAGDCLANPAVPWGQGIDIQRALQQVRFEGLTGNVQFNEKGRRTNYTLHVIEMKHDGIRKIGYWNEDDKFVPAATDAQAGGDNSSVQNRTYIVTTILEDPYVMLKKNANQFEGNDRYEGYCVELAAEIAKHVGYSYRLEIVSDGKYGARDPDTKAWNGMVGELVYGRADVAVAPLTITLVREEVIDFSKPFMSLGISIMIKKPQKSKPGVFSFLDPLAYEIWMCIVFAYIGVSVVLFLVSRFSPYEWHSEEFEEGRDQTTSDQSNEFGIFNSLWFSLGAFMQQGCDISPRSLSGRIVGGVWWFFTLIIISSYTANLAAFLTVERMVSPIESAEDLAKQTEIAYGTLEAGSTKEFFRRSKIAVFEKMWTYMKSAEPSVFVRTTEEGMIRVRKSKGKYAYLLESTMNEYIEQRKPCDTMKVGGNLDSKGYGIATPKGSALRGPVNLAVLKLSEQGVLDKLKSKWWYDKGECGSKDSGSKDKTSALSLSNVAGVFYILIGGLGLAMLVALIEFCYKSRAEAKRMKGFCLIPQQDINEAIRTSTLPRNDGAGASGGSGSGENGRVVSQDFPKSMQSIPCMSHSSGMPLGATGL

Experiments:
Experiment in all cases: co-IP
[1] = biological target: GluA1^DDDD (mouse GluA1 with S816, S818, S831 and S845 replaced with aspartate) (mouse) (UniProt P23818)
[2] = biological target: GluA1^DDAA (mouse GluA1 with S816/S818 replaced with aspartate and S831/S845 with alanine) (mouse) (UniProt P23818)
[3] = biological target: GluA1^AAAA (mouse GluA1 with S816, S818, S831 and S845 replaced with alanine) (mouse) (UniProt P23818)
[4] = biological target: GluA1^AADD (mouse GluA1 with S816/S818 replaced with alanine and S831/S845 with aspartate) (mouse) (UniProt P23818)

binding [1]: binds
binding [2]: binds
binding [3]: binds
binding [4]: binds
B1: stargazin (STG), co-expressed in HEK293 cells (protein, UniProt O88602 1-323)
chain: MGLFDRGVQMLLTTVGAFAAFSLMTIAVGTDYWLYSRGVCKTKSVSENETSKKNEEVMTHSGLWRTCCLEGNFKGLCKQIDHFPEDADYEADTAEYFLRAVRASSIFPILSVILLFMGGLCIAASEFYKTRHNIILSAGIFFVSAGLSNIIGIIVYISANAGDPSKSDSKKNSYSYGWSFYFGALSFIIAEMVGVLAVHMFIDRHKQLRATARATDYLQASAITRIPSYRYRYQRRSRSSSRSTEPSHSRDASPVGVKGFNTLPSTEISMYTLSRDPLKAATTPTATYNSDRDNSFLQVHNCIQKDSKDSLHANTANRRTTPV
